Reference: patent publication US20260042799A1, “APPLICATION OF PEPTIDE IN PREPARING DRUGS FOR TREATING AND/OR PREVENTING COGNITIVE IMPAIRMENT” (HUAZHONG UNIVERSITY OF SCIENCE AND TECHNOLOGY, priority 2024, published 2026)
“Also recorded” adds a separate entry of the source. Not every detail of the peptide structures is certain; ends, links or a residue may be inferred. Where no end group is shown, it is not given here.

Columns and labels:
C57 mice = test: Open field test, C57 mice; assay type: in vivo; details: TAT-P6 vs TAT-S6, 15 mg/kg subcutaneous, 14 days
P301S mice [1] = test: Open field test, P301S mice; assay type: in vivo; details: TAT-P6 vs TAT-S6, 15 mg/kg subcutaneous, 14 days
Description: (§1) FIG. 3A to FIG. 3J show the statistical chart of TAT-P6 peptide improving mouse learning memory ability results. FIGS. 3A-B are behavioral experiments for four groups of mice (C57 mice injected with TAT-S6 group, C57 mice injected with TAT-P6 group, P301S mice injected with TAT-S6 group, P301S mice injected with TAT-P6 group) using open field test system.
(§2) Male P301S mice 6-8 months old (purchased from Jackson Laboratory), C57/BL6 mice 6-8 months old (purchased from Beijing Vital River Laboratory Animal Technology Co., Ltd.), SPF grade, weight 20-25 grams, raised in conventional environment.
Open field experiment: The open field experiment is an experiment in which animals are placed in a closed open metal box area with a length of 80 cm, width of 80 cm, and height of 50 cm to observe mouse activity. This area is divided into squares, and typically the number of squares crossed by mice within a given time is counted to examine the anxiety emotional state and movement ability of the experimental mice. […] The experimental area is set up on the computer, the experimental area is divided equally into a “ ? ” shape, with the innermost circle as the central region and the outermost as the peripheral region, then the camera is turned on, the light source is adjusted, and information such as the position, movement route, and distance of the experimental mice is recorded using the computer. […]

P301S mice [2] = test: Novel object recognition test; assay type: in vivo; details: 15 mg/kg subcutaneous, 14 days
Description: as §1, §2
• 1) Mouse spatial memory detection: novel object recognition and water maze; • a) Novel object recognition: Before conducting the novel object recognition test, it is necessary to eliminate unfamiliarity with the mice by petting them daily to prevent stimulation during operation. The first stage is adaptation period. […] Within 5 min (many experiments have proven that after 2 min of familiarization period, animals already show good preference for novel objects, and of course, 3 min of familiarization makes the preference more obvious), the number of times, time, and distance the animal explores each object are measured. […] If the platform is not found within 90 s, the system automatically stops recording, and the latency period is recorded as 90 s. […]

P301S mice [3] = test: Morris water maze test; assay type: in vivo
Description: as §1, §2
• 1) Mouse spatial memory detection: novel object recognition and water maze; • a) Novel object recognition: Before conducting the novel object recognition test, it is necessary to eliminate unfamiliarity with the mice by petting them daily to prevent stimulation during operation. The first stage is adaptation period. Mice move freely in the experimental device (without objects) for 10 minutes. The second stage is familiarization period. Two identical objects are placed in the device (AB, ensuring objects have no odor and cannot be pushed), with objects 10 cm away from both side walls. The mouse is placed in the device with its back toward the objects from an equidistant position. A camera and software are used to record the exploration time of the mouse for each object (contact with the object by mouth or nose and approaching the object within approximately 2-3 cm range are considered exploration of the object). Within 5 min (many experiments have proven that after 2 min of familiarization period, animals already show good preference for novel objects, and of course, 3 min of familiarization makes the preference more obvious), the number of times, time, and distance the animal explores each object are measured. The third stage is testing period. 1 h after the completion of the second stage is generally selected as the time interval for memory detection (longer time intervals may be used to evaluate the effect of memory improvement). One of the two identical objects is replaced with a different object in the device (AC or BC), and similarly, the mouse is placed in the device with its back toward the objects from an equidistant position for 5 min. • b) Water maze experiment: The Morris water maze includes a circular pool diameter of 120 cm, height 60 cm; a columnar plexiglass platform diameter of 10 cm, height 40 cm. The water level in the pool is about 45 cm high, and both room and water temperature are maintained at 22 ±2° C. […] During training, the mouse is gently placed in the water from a ½ radian position of any quadrant with its head facing the pool wall, and its latency period (the time taken by the mouse to find the platform from entering the water) and path are detected as indicators to measure the mouse's learning memory and test performance. […] If the platform is not found within 90 s, the system automatically stops recording, and the latency period is recorded as 90 s. […] The initial training period is 6 days, with daily recording of the time needed for mice to find the platform, recorded as the latency period required for mice to find the platform. After one day of rest, the platform is removed, and the time spent by mice in the target quadrant within 60 s is calculated, and the number of crossings at the platform position is analyzed to evaluate their memory ability. • 2) Other behavioral detection of mice: open field, conditional fear experiment; […]

Syn2b = test: Immunoblotting of total Syn2b protein in mouse hippocampal brain region; assay type: in vivo, mice; details: subcutaneous injection of 15 mg/kg, hippocampus, compared with control group, GAPDH loading control
GluA2 = test: Immunoblotting of total GluA2 protein in mouse hippocampal brain region; assay type: in vivo, mice; details: subcutaneous injection of 15 mg/kg, hippocampus, compared with control group, GAPDH loading control
[4] = system: GluA2 membrane expression; test: Immunoblotting of GluA2 on cell membrane in mouse hippocampal brain region; assay type: in vivo, mice; details: hippocampal membrane proteins after behavioral tests, compared with control group, ATP1A1 loading control
[5] = system: sEPSC in the hippocampal brain region of P301S mice; test: Recording of spontaneous excitatory postsynaptic currents (sEPSC) in hippocampal brain slices; assay type: cell-based; details: 10 μM, P301S mouse hippocampal slices, compared with 10 μM TAT-S6
[6] = detection stage on the 8th day, 15 mg/kg subcutaneous, 14 days

With “YGRKKRRQRRRYILDCN [TAT-P6, YGRKKRRQRRRYILDCN]” the “time spent in the center position in the open field experiment” value (C57 mice) was “no statistical significance”, the “total movement distance in the open field experiment” value (C57 mice) was “no statistical significance” and the “time spent in the center position in the open field experiment” value (P301S mice [1]) was “no statistical significance”. For the same sequence, the “total movement distance in the open field experiment” value (P301S mice [1]) was “no statistical significance”, the “time spent at the new object” value (P301S mice [2]) was “spent more time at the new object” and the “learning memory function / ability” value (P301S mice [3]; 15 mg/kg subcutaneous, 14 days, compared with TAT-S6, behavioral detection (FIG. 3A-3J), 15 mg/kg) was “can effectively improve the learning memory function; also recorded: significantly improved learning and memory; also recorded: enhanced”. For the same sequence, the “number of times crossing the platform position in the water maze” value (P301S mice [3]; [6]) was “significantly increased”, the “time spent in the target quadrant in the water maze” value (P301S mice [3]; [6]) was “significantly increased” and the “latency to reach the platform in the water maze” value (P301S mice [3]; detection stage on the 8th day, 15 mg/kg subcutaneous, 14 days, 15 mg/kg) was “significantly reduced latency to reach the platform; also recorded: significantly shortened”. The “distance spent in the target quadrant in the water maze” value (P301S mice [3]; injection of TAT-P6 solution) was “significantly increased”, the “protein content of Syn2b” value (Syn2b; 15 mg/kg) was “no significant change” and the “protein content of Syn2b” value (Syn2b; listed as TAT-P-6, 15 mg/kg) was “did not affect”. For the same sequence, the “protein content of GluA2” value (GluA2; 15 mg/kg) was “no significant change”, the “protein content of GluA2” value (GluA2; listed as TAT-P-6, 15 mg/kg) was “did not affect” and the “GluA2 protein on the cell membrane” value [4] was “significantly higher”. The “amplitude of sEPSC” value [5] was “significantly increased”.
